From article PMC9176062, “Phase Ib study of combinations of avadomide (CC‐122), CC‐223, CC‐292, and rituximab in patients with relapsed/refractory diffuse large B‐cell lymphoma” (EJHaem, 2022)

Tested on: patients with R/R DLBCL
Test: Treatment duration, modification, and exposure
Format: in vivo
Experimental: CC‐122 hydrochloride, referred to here as CC‐122, as an active pharmaceutical ingredient in capsule (AIC) formulation, was administered orally once daily (QD). An alternate intermittent schedule of CC‐122 QD for five of every seven consecutive days (5/7), which improved tolerability and reduced the frequency and severity of neutropenia in a study of CC‐122 monotherapy in DLBCL, was also explored. CC‐292 was administered orally twice daily (BID) and CC‐223 was administered orally QD. Rituximab was administered on day 8 of cycle 1, day 1 of cycles 2–6, and day 1 of every third cycle thereafter. Patients in arm A received CC‐122 and CC‐223 with or without rituximab (starting at CC‐122 2 mg QD and CC‐223 20 mg QD), patients in arm B received CC‐122 plus CC‐292 with or without rituximab (starting at CC‐122 2 mg QD and CC‐292 500 mg BID), patients in arm C were treated with CC‐223 and CC‐292 (starting at CC‐223 20 mg QD and CC‐292 500 mg BID), and those in arm D received CC‐122 plus rituximab (starting at CC‐122 2 mg QD). In arm D, a CC‐122 3 mg formulated capsule was introduced with the same strength as CC‐122 3 mg AIC. Each dose level was cleared before the next was started. If unacceptable toxicity occurred at the initial dose level, dose reductions for CC‐122 (1.5 mg QD and 1 mg QD) and CC‐223 (15 mg QD) were allowed; no starting dose reductions for CC‐292 were planned. For arm A, the Safety Review Committee (SRC) determined which of the two drugs in the doublet to reduce. For arms B and D, the CC‐122 dose was reduced and for arm C, the CC‐223 dose was reduced. Assignment of patients to study arms was at the discretion of the investigator and based on slot availability per the study design.
Patients who experienced dose‐limiting toxicity (DLT) after receiving ≥1 dose of study treatment or those who received ≥80% of planned doses of CC‐122, CC‐223, CC‐292, and rituximab during cycle 1 without experiencing a DLT were considered DLT‐evaluable. If zero out of ≥3 or ≤1 out of six evaluable patients in a cohort experienced a DLT during cycle 1 in parallel dose cohorts, then dose escalation could occur. DLTs are defined in the Supplementary Materials; individual investigators performed response assessments and determined DLTs. The NTD was defined as the dose level at which ≥2 of six evaluable patients in a cohort experienced a DLT during cycle 1. […] During cycle 1, any adverse event (AE) that led to dose reduction was considered a DLT. Patients could resume CC‐122 at a reduced dose only if they recovered to grade ≤1 within 14 days of dose interruption; two dose reductions were allowed before the patient was withdrawn from the study. Dose reductions were permitted for CC‐122, CC‐223, and CC‐292; no dose reductions were allowed for rituximab, but treatment could be discontinued at the discretion of the investigator. […] For arms A, B, and D, CC‐122 dosing was modified to the intermittent 5/7‐day schedule based on SRC review and escalated until the MTD/RP2D was established. Treatment was given until disease progression, unacceptable toxicity, or patient/physician decision to withdraw consent.
^aTreatment duration defined as date of last derived dose – date of first dose + 1.
^bDefined as the ratio of actual dose received to planned dose over the treatment period.

[1] = Overall (all arms with the drug)
[2] = Overall (all arms with the drug), listed as Avadomide
[3] = Overall (all arms with the drug), listed as CC-223
[4] = Overall (all arms with the drug), listed as CC-292

For `Cc1nc2cccc(N)c2c(=O)n1C1CCC(=O)NC1=O` (stereo not drawn) [CC‐122, Avadomide], the “Median duration of the drug (range)” value (Arm A (Avadomide + CC-223 ± R)) was 72.0 (12-941) days, the “Median no. of cycles (range)” value (Arm A (Avadomide + CC-223 ± R)) was 2 (0-33) and the “Median relative dose intensity (range)” value (Arm A (Avadomide + CC-223 ± R)) was 1.0 (0.7-1.0). The “Median duration of the drug (range)” value (Arm B (Avadomide + CC-292 ± R)) was 56.0 (10-765) days, the “Median no. of cycles (range)” value (Arm B (Avadomide + CC-292 ± R)) was 2 (0-24) and the “Median relative dose intensity (range)” value (Arm B (Avadomide + CC-292 ± R)) was 1.0 (0.6-1.0). For the same compound, the “Median duration of the drug (range)” value (Arm D (Avadomide + R)) was 47.5 (7-605) days, the “Median no. of cycles (range)” value (Arm D (Avadomide + R)) was 1 (0-21) and the “Median relative dose intensity (range)” value (Arm D (Avadomide + R)) was 1.0 (0.5-1.0). The “Median duration of the drug (range)” value [1] was 56 days, the “Median no. of cycles (range)” value [1] was 2 (0-33) and the “Median relative dose intensity (range)” value [1] was 1.0. For the same compound, the “Median duration of the drug (range)” value [2] was 56.0 (7-941) days and the “Median relative dose intensity (range)” value [2] was 1.0 (0.5-1.0).

For `CO[C@H]1CC[C@H](N2C(=O)CNc3ncc(-c4ccc(C(C)(C)O)nc4)nc32)CC1` [CC‐223], the “Median duration of the drug (range)” value (Arm A (Avadomide + CC-223 ± R)) was 68.0 (12-937) days, the “Median no. of cycles (range)” value (Arm A (Avadomide + CC-223 ± R)) was 2 (0-33) and the “Median relative dose intensity (range)” value (Arm A (Avadomide + CC-223 ± R)) was 1.0 (0.7-1.0). The “Median duration of the drug (range)” value (Arm C (CC-292 + CC-223)) was 35.5 (7-112) days, the “Median no. of cycles (range)” value (Arm C (CC-292 + CC-223)) was 1 (0-3) and the “Median relative dose intensity (range)” value (Arm C (CC-292 + CC-223)) was 1.0 (0.6-1.0). The “Median duration of the drug (range)” value [1] was 56 days, the “Median no. of cycles (range)” value [1] was 2 (0-33) and the “Median relative dose intensity (range)” value [1] was 1.0. For the same compound, the “Median duration of the drug (range)” value [3] was 56.0 (7-937) days and the “Median relative dose intensity (range)” value [3] was 1.0 (0.6-1.0).

With `C=CC(=O)Nc1cccc(Nc2nc(Nc3ccc(OCCOC)cc3)ncc2F)c1` [CC‐292] the “Median duration of the drug (range)” value (Arm B (Avadomide + CC-292 ± R)) was 56.0 (12-542) days, the “Median no. of cycles (range)” value (Arm B (Avadomide + CC-292 ± R)) was 2 (0-18) and the “Median relative dose intensity (range)” value (Arm B (Avadomide + CC-292 ± R)) was 1.0 (0.6-1.0). The “Median duration of the drug (range)” value (Arm C (CC-292 + CC-223)) was 35.5 (7-233) days, the “Median no. of cycles (range)” value (Arm C (CC-292 + CC-223)) was 1 (0-8) and the “Median relative dose intensity (range)” value (Arm C (CC-292 + CC-223)) was 1.0 (0.6-1.0). The “Median duration of the drug (range)” value [1] was 56 days, the “Median no. of cycles (range)” value [1] was 2 (0-18) and the “Median relative dose intensity (range)” value [1] was 1.0. The “Median duration of the drug (range)” value [4] was 56.0 (7-542) days and the “Median relative dose intensity (range)” value [4] was 1.0 (0.6-1.0).
